No constants are given. Whether binding was seen depends on the method and setting. Some results given as binding are weak or reduced against the parent protein; the word gives no strength.
Key:
[1] = target: human CD4 (human) (UniProt P01730); test: cross-reactivity screen of primate species; format not described
[2] = target: chimpanzee CD4 (chimpanzee) (UniProt P16004); test: as above

B1: TRX1 humanized anti-CD4 antibody (aglycosyl IgG1, Asn to Ala at position 297 of the heavy chain constant region) (antibody, V domains shown)
VH: QVQLVQSGAEVKKPGASVKVSCKASGYTFTAYVISWVRQAPGQGLEWMGEIYPGSGSSYYNEKFKGRVTMTRDTSTSTVYMELSSLRSEDTAVYYCARSGDGSRFVYWGQGTLVTVSS
VL: DIVMTQSPDSLAVSLGERATINCKASQSVDYDGDSYMNWYQQKPGQPPKLLIYVASNLESGVPDRFSGSGSGTDFTLTISSLQAEDVAVYYCQQSLQDPPTFGGGTKVEIKR
In the case of B1, the binding [1] is reported as “binds” and the binding [2] is reported as “binds”.
